According to patent US20170360912A1, “CHITOSAN-BASED HYDROGEL AND APPLICATIONS THEREOF” (priority 2014, published 2017):
At least one compound was matched to its structure with a doubt left.

Assay: In vitro release of doxycycline, USP apparatus II
Assay type: physicochemical
Details: PBS, 37° C., 60 hours

C[C@H]1c2cccc(O)c2C(=O)C2=C(O)[C@]3(O)C(=O)C(C(N)=O)=C(O)[C@@H](N(C)C)[C@@H]3[C@@H](O)[C@@H]21 [doxycycline]
release profile of doxycycline from hydrogels: a burst release during the first 6 h, followed by a slow and continuous release from 6-60 hours
